Several values for one entry are separate records, joined by “and”; a condition that tells them apart may be missing. Equal entries are not always repeated. End groups of sequences in plain letters are not given here.
Tests used:
[1] = general procedure: hybrid (solid and solution phase) peptide synthesis; FmocLeuOResin loaded at 1.02 mmol/g; HBTU/HOBT/DIEA (fragment couplings in solution); settings: whole synthesis
[2] = general procedure: hybrid (solid and solution phase) peptide synthesis; 2-chlorotrityl chloride resin (super acid sensitive); HBTU/HOBT/DIEA (fragment couplings in solution); settings: for step yield / final HPLC purity: purification step; for final HPLC purity / crude HPLC purity: 280 nm
[3] = general procedure: hybrid (solid and solution phase) peptide synthesis; FmocTrp(Boc)OR loaded at 0.75 mmol/g; HBTU/HOBT/DIEA (fragment couplings in solution); settings: whole synthesis

Sequence | crude yield [1] | step yield [2] | final HPLC purity [2] | crude HPLC purity ([2]; whole synthesis) | crude yield [3] | crude HPLC purity ([2]; whole synthesis, run 1) | crude HPLC purity ([2]; whole synthesis, run 2) | crude yield ([2]; whole synthesis, run 1)
EQAQIQQEKNEYEL | 60% yield | 72% | 95 A % | 85A % |  |  |  | 
QKLDKWASLWEW |  |  |  | 87.9A % | 78% yield |  |  | 
WQEWEQKITALL |  | 81% | 90A % |  |  | 87A % and 83 Area % | 84 Area % (A %) | 90%

From patent US6767993 (dated 2004)
